Test results: paper doi:10.1101/2021.05.24.445396
Results are given in words; binding and its absence hold for the method and conditions named. In cells and extracts the contact can be indirect.

The chains behind the UniProt entries cited, without tags or fusion partners. Residues count along the entry.
UniProt Q969D9, residues 29-159: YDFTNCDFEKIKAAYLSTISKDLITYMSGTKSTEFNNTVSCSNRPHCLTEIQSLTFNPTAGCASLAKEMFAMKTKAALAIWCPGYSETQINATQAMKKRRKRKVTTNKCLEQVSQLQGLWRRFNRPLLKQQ

Biological target: T1, chromobox 4 (CBX4) (human (endogenous in HBE)) (UniProt O00257)
T1 sequence: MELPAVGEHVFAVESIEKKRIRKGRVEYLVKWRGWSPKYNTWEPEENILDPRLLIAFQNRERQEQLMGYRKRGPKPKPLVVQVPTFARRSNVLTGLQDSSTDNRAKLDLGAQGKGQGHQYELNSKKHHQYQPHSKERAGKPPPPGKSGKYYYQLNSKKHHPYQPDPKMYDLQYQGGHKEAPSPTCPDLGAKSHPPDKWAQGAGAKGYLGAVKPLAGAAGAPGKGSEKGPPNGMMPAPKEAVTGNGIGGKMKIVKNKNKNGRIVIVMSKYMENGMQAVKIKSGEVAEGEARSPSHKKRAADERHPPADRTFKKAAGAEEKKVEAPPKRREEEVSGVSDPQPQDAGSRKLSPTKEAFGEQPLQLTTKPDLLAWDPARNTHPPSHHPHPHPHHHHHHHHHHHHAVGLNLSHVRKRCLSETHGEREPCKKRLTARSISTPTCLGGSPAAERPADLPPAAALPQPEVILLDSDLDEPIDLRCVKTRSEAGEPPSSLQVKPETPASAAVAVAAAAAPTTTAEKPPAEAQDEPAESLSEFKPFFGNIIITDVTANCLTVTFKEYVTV
Experiment: co-IP

long-form thymic stromal lymphopoietin (lfTSLP) (from UniProt Q969D9-1 29-159)
binding: no binding
